Experimental data taken from the supplement of paper PMC3334620.
Whole data set: some 33,000 sequences, median “E-score (-0.5 to 0.5)” near -0.015, cut for the highest 2% near 0.3. Some of the results follow.

Target: T1, Abf1 (UniProt P14164)
T1 sequence: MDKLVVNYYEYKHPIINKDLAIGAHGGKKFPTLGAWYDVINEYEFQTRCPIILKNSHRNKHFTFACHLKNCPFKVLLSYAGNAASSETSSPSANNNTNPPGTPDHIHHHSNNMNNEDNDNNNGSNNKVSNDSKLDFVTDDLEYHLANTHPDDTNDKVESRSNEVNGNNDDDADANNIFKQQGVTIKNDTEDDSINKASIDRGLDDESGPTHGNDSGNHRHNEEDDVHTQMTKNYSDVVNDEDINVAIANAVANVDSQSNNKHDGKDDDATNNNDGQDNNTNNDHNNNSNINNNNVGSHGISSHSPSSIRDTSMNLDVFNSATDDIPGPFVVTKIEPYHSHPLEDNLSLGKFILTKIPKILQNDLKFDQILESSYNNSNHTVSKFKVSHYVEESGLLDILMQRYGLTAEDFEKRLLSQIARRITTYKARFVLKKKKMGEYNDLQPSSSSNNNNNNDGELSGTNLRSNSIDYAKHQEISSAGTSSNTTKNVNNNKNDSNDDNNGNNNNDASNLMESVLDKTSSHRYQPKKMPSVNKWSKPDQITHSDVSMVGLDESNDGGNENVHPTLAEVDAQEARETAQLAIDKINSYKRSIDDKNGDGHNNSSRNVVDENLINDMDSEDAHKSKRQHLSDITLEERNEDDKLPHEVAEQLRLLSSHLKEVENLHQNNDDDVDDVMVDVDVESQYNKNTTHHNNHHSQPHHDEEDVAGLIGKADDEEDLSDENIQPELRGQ
Assay: PBM E-score (8-mer binding enrichment) (E-score (-0.5 to 0.5)); higher = stronger / more preferred TF binding
Conditions: protein concentration: 200 nM; construct: GST-full length
Method in brief: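 For each ungapped eight-base word taken together with its reverse complement, the Universal PBM Analysis Suite assigned an E-score. Binding data came from GST-tagged yeast transcription factors, applied at about 100-200 nM, on universal all-10-mer Agilent arrays made double-stranded by primer extension. Fluorescent anti-GST marked bound protein, and scans were normalised with masliner.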

| Sequence | PBM E-score |
| --- | --- |
| CGAGCACC | 0.00575 |
| CAGGATTA | -0.177 |
| GTATCAAC | 0.0912 |
| GCCCATCA | -0.281 |
| AGACCTTC | -0.111 |
| CCTGACTC | -0.142 |
| CATCTTCA | -0.0966 |
| CAGAGATG | -0.0561 |
| CTCTCGCA | -0.126 |
| CCCAAGAC | -0.141 |
| AACTGAAA | 0.0208 |
| GCGATCCC | -0.13 |
| GCGCCCGC | -0.161 |
| CATCGGTC | -0.145 |
| CCAGCGCG | -0.156 |
| GCAAGAAC | 0.0235 |
| TCAATTGA | 0.164 |
| ACTACCGG | -0.0793 |
| GCAATGGA | -0.0961 |
| CTGGGGCC | -0.366 |
| AAACAAGT | -0.139 |
| AAGTGGCA | -0.113 |

| Sequence | PBM E-score |
| --- | --- |
| GATGCCCC | -0.172 |
| AGCCCCGC | -0.217 |
| GTTAAACA | 0.106 |
| CGCTAATA | -0.002 |
| ATTGACCA | 0.0193 |
| TCGCAACA | -0.014 |
| CTGCCTCA | -0.198 |
| GATTAGCA | 0.0185 |
| CTGACCAA | 0.102 |
| AGCAACCT | -0.209 |
| GGGGAACC | -0.304 |
| TGGTCACA | 0.0583 |
| ACCGGGTG | -0.0777 |
| ACCTGACG | -0.0385 |
| ACCGTGAT | 0.213 |
| GCACCCCC | -0.312 |
| CTCTCGTA | 0.0372 |
| ACCACGTC | 0.0678 |
| AGCAGTAC | -0.0878 |
| GCAATTCC | 0.0466 |
| ACCACATC | 0.136 |
| ATGTTGAG | -0.0175 |

| Sequence | PBM E-score |
| --- | --- |
| AACTTTGG | 0.0844 |
| AACAGGTG | -0.0707 |
| CCTCAGAC | -0.1 |
| GGGGTACA | -0.275 |
| ACAATACC | 0.121 |
| CCAAATCG | -0.00456 |
| ACGTCCCT | 0.141 |
| ACGATAAA | 0.352 |
| ATATCTGC | 0.179 |
| CTCAAACA | 0.0674 |
| TAGGCCCA | -0.36 |
| ACTGCCCG | -0.0649 |
| GTTGACTA | -0.164 |
| ACATGTAA | 0.142 |
| AACTCTCT | -0.138 |
| GCCTTGGA | -0.00196 |
| AGAGGCTG | -0.248 |
| AAAGTAGG | 0.155 |
| TAAATTAA | 0.0895 |
| ATGTGAAC | -0.0834 |
| AGCGCTTA | 0.00773 |
| ACGACAAC | 0.265 |

| Sequence | PBM E-score |
| --- | --- |
| ATCTAGCA | 0.0196 |
| GGCGCTTA | -0.192 |
| ATATTAAT | 0.216 |
| CCTTGATA | 0.114 |
| ATTGCACC | -0.0482 |
| ACTGCTTA | -0.158 |
| CACCATTA | 0.0146 |
| AGAGCCAG | -0.192 |
| ACCACAGA | -0.0898 |
| AAATCGTC | 0.347 |
| ATATGACG | 0.243 |
| CATCTCGG | 0.0152 |
| CTAAAGAA | -0.0384 |
| ACCGCGGG | -0.173 |
| AACGCTTC | -0.0829 |
| AACCACCA | -0.263 |
| ATGAAAAG | -0.0286 |
| CTCTAGAC | -0.077 |
| ACATACTA | 0.109 |
| AGCCGCAT | -0.0289 |
